No constants are given. Whether binding was seen depends on the method and setting. Binding seen in cells or lysates may run through a third protein. Here binding means that the protein was enriched with, or labelled near, the bait; the list need not be complete. No binding means not detected with the bait.
T1: Trs120p-TAP (yeast (endogenous in the yeast strain)) (UniProt Q04183)
T1 sequence: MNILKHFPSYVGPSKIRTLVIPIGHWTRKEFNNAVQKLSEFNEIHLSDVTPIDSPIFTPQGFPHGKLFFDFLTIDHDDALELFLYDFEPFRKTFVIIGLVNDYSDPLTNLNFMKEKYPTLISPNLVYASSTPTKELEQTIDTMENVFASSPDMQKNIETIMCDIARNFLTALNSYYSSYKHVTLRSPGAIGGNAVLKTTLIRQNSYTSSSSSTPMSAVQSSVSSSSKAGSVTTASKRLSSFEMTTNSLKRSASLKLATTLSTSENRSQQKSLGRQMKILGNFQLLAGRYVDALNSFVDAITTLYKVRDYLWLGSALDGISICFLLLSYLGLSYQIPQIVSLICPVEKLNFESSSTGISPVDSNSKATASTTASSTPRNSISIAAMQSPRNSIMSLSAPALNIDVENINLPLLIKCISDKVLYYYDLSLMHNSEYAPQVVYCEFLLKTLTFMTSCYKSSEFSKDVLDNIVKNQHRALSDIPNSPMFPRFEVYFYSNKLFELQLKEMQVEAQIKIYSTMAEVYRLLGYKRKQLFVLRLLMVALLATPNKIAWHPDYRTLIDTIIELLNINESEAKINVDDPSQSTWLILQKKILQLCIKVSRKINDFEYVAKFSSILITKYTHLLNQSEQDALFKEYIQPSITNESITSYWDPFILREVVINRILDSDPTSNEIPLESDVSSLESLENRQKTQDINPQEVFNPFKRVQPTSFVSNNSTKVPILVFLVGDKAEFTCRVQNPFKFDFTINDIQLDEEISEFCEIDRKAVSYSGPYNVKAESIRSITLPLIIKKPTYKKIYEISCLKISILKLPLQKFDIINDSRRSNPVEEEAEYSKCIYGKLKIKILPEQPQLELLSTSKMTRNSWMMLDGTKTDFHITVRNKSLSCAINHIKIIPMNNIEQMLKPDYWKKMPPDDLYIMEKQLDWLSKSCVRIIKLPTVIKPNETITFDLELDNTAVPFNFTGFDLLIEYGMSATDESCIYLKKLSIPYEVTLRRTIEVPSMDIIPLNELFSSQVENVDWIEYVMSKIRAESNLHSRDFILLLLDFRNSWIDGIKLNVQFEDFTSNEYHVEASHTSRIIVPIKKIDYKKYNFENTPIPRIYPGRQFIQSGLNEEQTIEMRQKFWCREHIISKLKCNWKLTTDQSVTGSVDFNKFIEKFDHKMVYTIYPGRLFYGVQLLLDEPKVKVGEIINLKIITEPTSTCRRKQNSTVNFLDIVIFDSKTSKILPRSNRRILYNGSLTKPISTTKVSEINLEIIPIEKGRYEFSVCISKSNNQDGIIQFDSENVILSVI

Sequences of proteins named here, by UniProt entry; tags and fusion partners are left off.
UniProt P40357: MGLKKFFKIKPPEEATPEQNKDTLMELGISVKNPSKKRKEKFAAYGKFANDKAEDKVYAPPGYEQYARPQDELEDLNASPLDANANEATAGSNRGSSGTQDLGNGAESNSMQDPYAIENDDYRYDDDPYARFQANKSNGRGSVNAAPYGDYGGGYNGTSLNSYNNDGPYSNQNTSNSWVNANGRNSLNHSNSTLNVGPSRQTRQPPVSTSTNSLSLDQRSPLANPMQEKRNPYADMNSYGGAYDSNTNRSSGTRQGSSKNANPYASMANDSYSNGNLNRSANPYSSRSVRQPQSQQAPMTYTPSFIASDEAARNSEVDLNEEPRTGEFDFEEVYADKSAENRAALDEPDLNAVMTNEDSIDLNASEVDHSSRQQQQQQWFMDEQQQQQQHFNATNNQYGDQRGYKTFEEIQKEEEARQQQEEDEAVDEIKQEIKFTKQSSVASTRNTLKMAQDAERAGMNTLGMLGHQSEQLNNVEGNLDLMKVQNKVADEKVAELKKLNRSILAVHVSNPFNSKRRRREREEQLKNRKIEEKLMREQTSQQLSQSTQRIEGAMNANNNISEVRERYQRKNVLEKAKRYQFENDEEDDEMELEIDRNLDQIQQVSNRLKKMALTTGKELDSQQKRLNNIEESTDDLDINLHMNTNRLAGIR
UniProt P38261: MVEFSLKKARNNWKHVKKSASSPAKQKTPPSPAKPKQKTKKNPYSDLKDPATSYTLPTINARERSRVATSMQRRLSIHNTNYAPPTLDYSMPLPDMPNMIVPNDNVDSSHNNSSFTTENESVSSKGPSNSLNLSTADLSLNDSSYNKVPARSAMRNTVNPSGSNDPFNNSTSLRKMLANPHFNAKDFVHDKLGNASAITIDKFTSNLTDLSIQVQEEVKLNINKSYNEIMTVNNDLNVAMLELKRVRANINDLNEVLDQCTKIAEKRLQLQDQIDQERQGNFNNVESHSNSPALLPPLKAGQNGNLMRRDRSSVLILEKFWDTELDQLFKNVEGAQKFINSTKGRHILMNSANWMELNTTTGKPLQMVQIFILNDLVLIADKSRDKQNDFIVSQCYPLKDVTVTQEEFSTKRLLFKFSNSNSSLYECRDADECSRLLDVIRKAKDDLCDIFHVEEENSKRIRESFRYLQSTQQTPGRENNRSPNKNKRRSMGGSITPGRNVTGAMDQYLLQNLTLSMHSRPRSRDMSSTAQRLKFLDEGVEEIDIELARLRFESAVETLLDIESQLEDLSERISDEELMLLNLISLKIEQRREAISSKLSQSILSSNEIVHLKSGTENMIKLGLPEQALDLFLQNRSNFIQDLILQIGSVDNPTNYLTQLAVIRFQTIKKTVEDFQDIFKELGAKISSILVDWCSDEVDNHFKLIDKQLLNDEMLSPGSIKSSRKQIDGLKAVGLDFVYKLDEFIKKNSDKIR
UniProt P38631: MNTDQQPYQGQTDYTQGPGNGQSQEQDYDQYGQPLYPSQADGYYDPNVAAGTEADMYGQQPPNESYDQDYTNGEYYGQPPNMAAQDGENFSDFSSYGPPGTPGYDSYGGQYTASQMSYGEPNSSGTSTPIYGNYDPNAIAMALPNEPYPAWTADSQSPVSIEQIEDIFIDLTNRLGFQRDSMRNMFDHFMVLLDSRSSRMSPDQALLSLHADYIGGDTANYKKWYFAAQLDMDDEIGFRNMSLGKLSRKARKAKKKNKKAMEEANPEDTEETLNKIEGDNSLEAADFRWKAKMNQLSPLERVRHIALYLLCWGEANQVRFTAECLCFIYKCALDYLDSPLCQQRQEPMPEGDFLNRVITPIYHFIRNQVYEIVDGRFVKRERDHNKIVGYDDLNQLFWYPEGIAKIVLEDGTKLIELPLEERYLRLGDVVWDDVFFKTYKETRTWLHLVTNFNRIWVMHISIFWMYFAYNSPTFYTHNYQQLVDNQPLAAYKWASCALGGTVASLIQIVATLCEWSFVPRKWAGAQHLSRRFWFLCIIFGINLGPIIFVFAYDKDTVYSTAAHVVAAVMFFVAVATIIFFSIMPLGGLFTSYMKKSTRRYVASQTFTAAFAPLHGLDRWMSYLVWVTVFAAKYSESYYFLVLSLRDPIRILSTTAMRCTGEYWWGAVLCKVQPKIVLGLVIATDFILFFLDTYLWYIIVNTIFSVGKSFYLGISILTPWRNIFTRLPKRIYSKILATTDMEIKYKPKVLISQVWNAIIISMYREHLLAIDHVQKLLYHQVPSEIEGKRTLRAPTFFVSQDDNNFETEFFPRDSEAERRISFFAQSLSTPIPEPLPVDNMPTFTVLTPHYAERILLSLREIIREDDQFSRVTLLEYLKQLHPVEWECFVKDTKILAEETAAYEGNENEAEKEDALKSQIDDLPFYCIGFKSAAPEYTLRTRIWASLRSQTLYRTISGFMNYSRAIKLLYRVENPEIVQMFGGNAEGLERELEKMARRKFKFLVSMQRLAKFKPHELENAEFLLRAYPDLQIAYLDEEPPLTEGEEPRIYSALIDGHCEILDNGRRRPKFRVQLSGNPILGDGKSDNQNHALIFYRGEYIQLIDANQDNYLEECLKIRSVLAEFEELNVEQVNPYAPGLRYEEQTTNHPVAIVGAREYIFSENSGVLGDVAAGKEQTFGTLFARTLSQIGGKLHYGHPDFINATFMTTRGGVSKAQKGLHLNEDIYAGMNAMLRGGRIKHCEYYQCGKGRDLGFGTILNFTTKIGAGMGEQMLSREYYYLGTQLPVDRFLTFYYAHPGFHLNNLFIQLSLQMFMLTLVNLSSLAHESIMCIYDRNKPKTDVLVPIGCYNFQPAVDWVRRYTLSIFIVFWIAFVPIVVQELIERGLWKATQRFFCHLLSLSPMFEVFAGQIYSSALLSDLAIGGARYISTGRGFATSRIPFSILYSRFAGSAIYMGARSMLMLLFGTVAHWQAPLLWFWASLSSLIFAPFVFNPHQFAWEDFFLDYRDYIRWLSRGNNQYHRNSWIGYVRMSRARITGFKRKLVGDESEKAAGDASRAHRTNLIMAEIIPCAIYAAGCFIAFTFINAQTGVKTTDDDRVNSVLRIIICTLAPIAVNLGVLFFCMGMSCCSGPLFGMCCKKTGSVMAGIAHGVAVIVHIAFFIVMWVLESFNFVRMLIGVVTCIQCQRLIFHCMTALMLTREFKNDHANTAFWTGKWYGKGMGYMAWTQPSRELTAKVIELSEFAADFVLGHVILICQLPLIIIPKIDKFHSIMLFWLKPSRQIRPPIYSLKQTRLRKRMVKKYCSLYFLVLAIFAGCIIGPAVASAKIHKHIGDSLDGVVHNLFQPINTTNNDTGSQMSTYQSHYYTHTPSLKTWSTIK
UniProt P32867: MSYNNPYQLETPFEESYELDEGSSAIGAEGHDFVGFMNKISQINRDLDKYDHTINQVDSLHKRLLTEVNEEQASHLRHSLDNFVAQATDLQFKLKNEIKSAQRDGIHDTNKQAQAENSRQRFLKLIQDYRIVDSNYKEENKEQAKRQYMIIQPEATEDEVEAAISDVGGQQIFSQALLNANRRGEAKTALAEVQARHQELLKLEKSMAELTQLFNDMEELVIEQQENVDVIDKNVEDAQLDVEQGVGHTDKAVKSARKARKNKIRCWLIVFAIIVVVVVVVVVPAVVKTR
UniProt P38682: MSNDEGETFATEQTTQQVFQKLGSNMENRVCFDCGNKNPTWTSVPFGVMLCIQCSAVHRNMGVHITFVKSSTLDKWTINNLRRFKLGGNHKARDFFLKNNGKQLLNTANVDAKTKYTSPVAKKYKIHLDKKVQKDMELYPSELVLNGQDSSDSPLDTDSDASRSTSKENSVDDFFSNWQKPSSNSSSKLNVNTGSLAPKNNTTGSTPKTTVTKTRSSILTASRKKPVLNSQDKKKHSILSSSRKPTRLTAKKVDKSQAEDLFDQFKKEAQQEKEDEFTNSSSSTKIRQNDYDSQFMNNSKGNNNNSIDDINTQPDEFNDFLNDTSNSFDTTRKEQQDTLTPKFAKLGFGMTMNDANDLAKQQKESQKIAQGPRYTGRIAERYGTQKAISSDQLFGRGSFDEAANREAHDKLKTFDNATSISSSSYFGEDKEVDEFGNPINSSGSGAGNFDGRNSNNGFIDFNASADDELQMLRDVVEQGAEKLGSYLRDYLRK
UniProt P01123: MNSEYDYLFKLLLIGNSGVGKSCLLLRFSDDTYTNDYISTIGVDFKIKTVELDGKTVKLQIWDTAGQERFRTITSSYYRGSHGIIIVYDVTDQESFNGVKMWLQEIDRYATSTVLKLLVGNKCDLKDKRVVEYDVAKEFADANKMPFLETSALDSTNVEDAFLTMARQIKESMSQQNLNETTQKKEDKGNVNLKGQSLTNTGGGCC

B1: Trs130p (protein, UniProt Q03660 1-1102)
chain: MDKEIYCGSVPVSYFDPFDLFESLRPEFQQILPLDNIHWKAFDGTVRTVNRLPIELIPEGRGEADKSNDEQPFIRFLIVNCISIDQYRAKVRPLVRQWLPNLESVSSSTGEKMIYKPIILLYANSEVVDSNLFKSVSLMEKFGKDFPHVQTLEVRSVYRSPKERQEFWNQFSQKIKASVLSIFQKRLTHLQHSLANLQKGNNFEEQLLTREKLYELYVVFNILEDASLELQKIKKEILRRNMNMPDGKLQVPFESSSKSDESLGSIIIEGTLDKFQLHKYFFIRRLRLLKLEDQTLTAFVGAFQLIKNFIESISIEYRKSVRLLEFKHYFITSMLSYFEFENVSNPLLCEIKAELLMLKRDNWVQGVMATSGYRLMDKNYPNSDVKYKFDLLKETFVDETVFQENFLTLTKEILSLFNKCEGKRQRIVDILSIEIGLLYYQGKKYEEAVSLFLSCYEYYTQTNWNSIGLKILQVFIDSLSHCPKLDVLQIDGESVSASAVLTNAFLNILKLCKDNDSKEIWWKKFMDLQMKNNIHLMYPLDGLFEVTLNSKVHLARANVSAIEVNLKSYGFPEDISTKTMRLSLKNMGGDVIVFGASDFLLKKGENKLILECRDIMYGEFSLLSFEIIVEGITFVKEFPENQDEFIVVPEIYCKESTKVLVKQAHNLNLGEYALELKSVQSDALESLQVEVEVQKNIGNMKNLPVSFSMDEIQARKRYNTPFENVRLEYYLLDQITAFDLIIKTSFTKKNDQGTFGETKKVRIQCYLQLSVSVEDIFKKDIFFFKFLLNSSVREEPVILYSSELSAPDTRNDYNIRGDYIATTPALITFDGNESFINCYEITANNNFDSKDIFNLKVRYNTLKEQLDCFITDAVLIEGDVEWFILFEKWKTFWELEILKKLKYDYDAFKENRIIRLLKTSIDLNKTKSKIRNLCIEKAVLDKILICLNKVSRGIAVCNTDMDEYVRNLVPKQLTVPVQLPGFEQFFHVQFEQMETSHDALHDTIATIGNSLSYTVIVENLSGQWGQDVIDDGGYIFEILSSNEWLIHGQKRCAIKEKRKEFEVHLIPLKKGYLNFPRVEITNINGKSCRVDHSNAFESILIF
B2: SYP1 (protein, UniProt P25623 1-870)
chain: MTEQRTKYADSILTTKSPYEATETIRIRLSQVKLLNKDFYLLFKELANLKRNYAQQLRKIIAENEDITKILNAQMIESNVLTPQEMSAFRFNSLGELRNVWDTVIEELKSDLKSSTEYYNTLDQQVVRELKESVENNTSWRESKDLHSKLSKNAASIEHYSKNNENSSHLEEARRQWDQQSPYLFELFETIDYNRLDTLKNCMLRFQTSFSDYLLNTTKECETVMTKFLAFEPQSEIDRFAKDASQYNFQLSSSSKEVVPNNASPASATGARPVSVSNGAANTEREKKSPQKDKRKSAFGNIGHRLASASSSLTHNDLMNNEFSDSTNNSSLKSKKSSHTLRSKVGSIFGRNKTKNKRQQQSSSNSHIQASITETPNNSSTRVSSTATSSIYQKQRRPTYSSSKSNNWTPGEASDTPPLPPHATPKNVDAPVTADTPPAQTFTPSEVPPSTPQQSSPPTAKEPDSSNLPKTVPISISQPPLQPQSKTKPLPVEPASPSISLPTATVDNQPSGQVDSRPLHIRAPALPPSRKQNFIHNRDSQLYDSLPNHGSGATPTSSSLSSIPQERPVSTLSSQITGELRELNPQATGSSTSLVGQSLFQHSSLDTSQFGLNASIAEVLNASFKDGMLQNSQLIGEIALNYLPNSVMNSPLPIGINLRINNGAKFEKVILNQAFIERVAPEEFKVNPSFIDSRTLGAIKYSIKEPIAPIVIHPVWRFESHQASVVLTVKMSPSLPDEISQIVIEDLVVFVNIDGANATSALSKPQGSFSKEKKRITWRFKEPVVLTRNGEGQRLIARFITDGLAHESAKGVITKFTISETDNVALPHSGAGSGITLTCQELDENNPFGGEWLDVNTKRTLTTGNYHGLA
B3: Trs33p (protein, UniProt Q99394 1-268)
chain: MSSTHSNNVGHPQSSPQGPLTEQQRAQQQYQIFENSLPKVSQSVYQMLLNEMVPLAMGIERQISGDVISSDSNVTSENGNINNMIKRLKIEEHHTVDIIRSHNLIHELYKADEEEKEKVLARLRNIGFQIGLKLSELLIFSNNPNLKFKEMDLLLIMKFICRDVWKQIFGKQIDNLKTNHRGTFYLLDYDYRPIQSFSLEEDAKNEELKMIEPFLEIPVGIIRGVLSSLGYSSEEVICLASFIDRPTDRPKTAFPKGVSFHVQVTMPQ
B4: Bet3p (protein, UniProt P36149 1-193)
chain: MVSTTQSRSLKAMGEEIWKNKTEKINTELFTLTYGSIVAQLCQDYERDFNKVNDHLYSMGYNIGCRLIEDFLARTALPRCENLVKTSEVLSKCAFKIFLNITPNITNWSHNKDTFSLILDENPLADFVELPMDAMKSLWYSNILCGVLKGSLEMVQLDCDVWFVSDILRGDSQTEIKVKLNRILKDEIPIGED
B5: TRS23 (protein, UniProt Q03784 1-219)
chain: MAIETILVINKSGGLIYQRNFTNDEQKLNSNEYLILASTLHGVFAIASQLTPKALQLTQQTNIENTIPYIPYVGMSSNRSDTRNGGGNNNKHTNNEKLGSFKGDDFFKEPFTNWNKSGLRQLCTDQFTMFIYQTLTGLKFVAISSSVMPQRQPTIATTDKPDRPKSTSNLAIQIADNFLRKVYCLYSDYVMKDPSYSMEMPIRSNLFDEKVKKMVENLQ
B6: GAS1 (protein, UniProt P22146 23-528)
chain: DDVPAIEVVGNKFFYSNNGSQFYIRGVAYQADTANETSGSTVNDPLANYESCSRDIPYLKKLNTNVIRVYAINTTLDHSECMKALNDADIYVIADLAAPATSINRDDPTWTVDLFNSYKTVVDTFANYTNVLGFFAGNEVTNNYTNTDASAFVKAAIRDVRQYISDKNYRKIPVGYSSNDDEDTRVKMTDYFACGDDDVKADFYGINMYEWCGKSDFKTSGYADRTAEFKNLSIPVFFSEYGCNEVTPRLFTEVEALYGSNMTDVWSGGIVYMYFEETNKYGLVSIDGNDVKTLDDFNNYSSEINKISPTSANTKSYSATTSDVACPATGKYWSAATELPPTPNGGLCSCMNAANSCVVSDDVDSDDYETLFNWICNEVDCSGISANGTAGKYGAYSFCTPKEQLSFVMNLYYEKSGGSKSDCSFSGSATLQTATTQASCSSALKEIGSMGTNSASGSVDLGSGTESSTASSNASGSSSKSNSGSSGSSSSSSSSSASSSSSSKKN
B7: AKL1 (protein, UniProt P38080 1-1108)
chain: MSITNGTSRSVSAMGHPAVERYTPGHIVCVGTHKVEVVNYLAEGGFAQIYVVKFLEYLNEFDNTASVPLKIGDVACLKRVLVQDENGLNEMRNEVEVMKKLKGAPNIVQYFDSNASRRRDGVQGFEVLLLMELCPNKSLLDYMNQRLSTKLTEAEIVKIMYDVALSISQMHYLPVSLIHRDIKIENVLVDAKNNFKLADFGSTSTCFPIVTTHQDIALLTQNIYVHTTPQYRSPEMIDLYRCLPINEKSDIWALGVFLYKLLFFTTPFEMTGQFAILHSKYEFPVNKYSSKLINLIIIMLAENPNLRPNIYQVLYHLCEILNVEVPIEDKYAEGAYNFSKYTQFQNKLQNVQLQMYQLQQKKIMQNNKLSDSEENLLNDMFLSSFEISSKLPMNASDGHAAVSRIPSQNVGQELEEEKESQSDQRKSTLSEDKSSRTTSNANSSGTANNPQEINTIQSPGIEDKSIFENKTPGELYYPSVSELDTYLDKELVKQSSDPTISEQSPRLNTQSLPQRQKSTSSYSSGGRSMKSTSYGAATIGSDEALANEKTAGINKMKQHKSNNPFPKMNVAYHSTNELSNDASNFFLEEQQQGQRYQQAQNQTGTQGNTFPDESQYQSRVEQQQQQQDQPKGPANYSQRNFYTGRDRSNKPMQLGGTIAGDSGNRRVNFQNISQNYATNSQSGYLPSQNSPAIPMVRPVISMNQQQAQQIQAQQLQAQQMQAKQQMQAKQQMQVQQQLQVQQQMQIQNANNNGTYVSDRTNHTTEDMRNAQGGEPPILAGNSANEPMHSSSKNEALLIELSPLKEDAGKQSFQDTNEPQTGGIEDAGGSGTIKGSNNNRNGVLNLSLNEMDLSRDDTGAAVSSFSSSSSSASIQQAKLSGRKGSSKRNNYSTDELGDSMVSSESIDIDLDDARRGKTAERRPLHNERGHKDQARSSDASKSNQFKSKDFSSVSTRQPRQSLDLNFQEVNLSSPTLTQEHRNKNDSPAPNSHHSYRVSPHASTAITENKRHSTGHELSTRSNGKHETHRTGSKQRHDLERYRHSKDKDSNSSITISTSTPSEMRKSFARARQSLDLERVRREAMASSASSSGGSNGKRRSFFSVFRSEK

Molecular target: T1, Trs120p-TAP (yeast (endogenous in the yeast strain))
Assay: affinity purification with mass spectrometry; Trs120p-TAP purified from yeast lysate (1% CHAPS, 100 mM NaCl) on IgG beads, TEV elution, calmodulin beads, EGTA elution; gel bands or total eluate analysed by MS/MS

Molecule	binding
SEC9 (from UniProt P40357 1-651)	binds
EXO89 (from UniProt P38261 1-753)	binds
FKS1 (from UniProt P38631 1-1876)	binds
SSO1 (from UniProt P32867 1-290)	binds
Glo3p (from UniProt P38682 1-493)	binds
Ypt1p (from UniProt P01123 1-206)	no binding
B1	binds
B2	binds
B3	binds
B4	binds
B5	binds
B6	binds
B7	binds
